## Library screening results

Measurements from “University of Dundee, Small-Polar-MMV Screening Library” (2021), ChEMBL document CHEMBL3988442.

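Whole-cell assay for inhibitors of Mycobacterium tuberculosis growth, labelled Cornell in the record; the read-out is not stated. The concentration is filed as 10 mM, unlikely as a test dose, so the dose is not known. The record gives no direction; compounds strong in two other growth screens of this library score well above the rest, so higher reads as stronger inhibition. Of about 53,000 compounds tested this way, about 900 (1.7%) reached 50% or more in at least one test.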

Results are given as percent effect. How 0% and 100% were set is not recorded. Most values in the screen are low, and negative values occur. The compounds are a random part of those screened.

For Cc1nccc(-c2cccc(NCC(=O)N3CCNC(=O)C3)c2)n1 the result was 4.567%. COc1ccc(CN2CCCC3(CC2)CNC(=O)O3)cc1OC (stereo not given) gave -5.602%. For COCCC(=O)Nc1nc2c(OC)cc(F)cc2s1 the result was -9.521%. For Cc1n[nH]c(C)c1CC(=O)NCCc1ccccc1 the result was -8.297%. COC(=O)N1CCCC(NC(=O)NCc2ccc(C)nc2)C1 (stereo not given) read 9.115%. With CCn1cc(CNCC(c2ccc(C)s2)N2CCOCC2)cn1 (stereo not given) the screen gave 4.351%. Result for COc1ccc(-c2nc(CN3CCCC3Cn3cccn3)no2)cc1 (stereo not given) was 20.42%.

For Cl.[H][C@@]12CCN(C3CCCCC3)C[C@]1([H])[C@@H](c1ccsc1)CN2C(=O)C(C)(C)C the result was -19.59%. With Cc1ccc(C(CNC(=O)c2c(C)noc2C(C)C)N(C)C)cc1 (stereo not given) the screen gave 2.064%. [H][C@@]12CS(=O)(=O)C[C@]1([H])N(C(=O)Cc1ccc(F)c(C)c1)CCN2CC1CC1 read -13.89%. Result for c1cc(-c2noc(CN3CCn4c(nnc4C4CC4)C3)n2)co1 was 4.432%. For Cc1cnc2n(c1=O)C(CC(=O)NCc1cc(-c3cccs3)on1)CS2 (stereo not given) the result was -35.49%. With O=C(O)C(F)(F)F.[H][C@@]12COC[C@]1(c1nnc(C)o1)CN(Cc1cnn(C)c1)C2 the screen gave 29.27%. With CCNC(=O)C1CCN(c2nc(-c3ccco3)nc3c2CCNCC3)C1 (stereo not given) the screen gave 28.68%.

Cc1cc(F)c(S(=O)(=O)Nc2ccn(CCC#N)n2)cc1F read 3.735%. [H][C@@]12CN(Cc3cccc(O)c3)C[C@]1([H])N(CCCN1CCOCC1)C(=O)O2 read -48.77%. For Cc1nccn1C1CCCN(C(=O)c2ccc(-n3cccn3)nc2)C1 (stereo not given) the result was -5.612%. CN1CCc2c(C#N)c(NCc3cccnc3)n3cnnc3c2C1.Cl read 14.81%. With O=C(O)C(F)(F)F.O=C(O)C(F)(F)F.[H][C@@]12CN(Cc3ccco3)C[C@]1([H])[C@H](OC)CCN2Cc1ccoc1 the screen gave 16.29%. O=C(NCC1CCCN1Cc1ccccc1)NCC1(O)CCC1 (stereo not given) read -15.22%. Result for CC(CC(=O)N1CCCN(Cc2cscn2)CC1)n1cccc1 (stereo not given) was 15.7%.

For CC(=O)Nc1ccc(CNCC(O)c2ccc(C)cc2)cc1 (stereo not given) the result was -15.4%. [H][C@@]12CCN(c3ncccn3)[C@]1([H])CC[C@H](C(=O)N1CCCCO1)O2 read -11.35%. Result for CCC(C)(NCC(=O)OC)c1nccs1 (stereo not given) was -24.61%.

The first 2 entries again:

- Cc1nccc(-c2cccc(NCC(=O)N3CCNC(=O)C3)c2)n1 : 4.567%
- COc1ccc(CN2CCCC3(CC2)CNC(=O)O3)cc1OC (stereo not given) : -5.602%